Experimental data published in paper PMC9618567.
These are yes or no findings as the source states them, for the method shown. Some results given as binding are weak or reduced against the parent protein; the word gives no strength.

Amino acid sequences for entries named in this document (tags omitted). Residues count along the entry.
UniProt P08195, residues 102-630: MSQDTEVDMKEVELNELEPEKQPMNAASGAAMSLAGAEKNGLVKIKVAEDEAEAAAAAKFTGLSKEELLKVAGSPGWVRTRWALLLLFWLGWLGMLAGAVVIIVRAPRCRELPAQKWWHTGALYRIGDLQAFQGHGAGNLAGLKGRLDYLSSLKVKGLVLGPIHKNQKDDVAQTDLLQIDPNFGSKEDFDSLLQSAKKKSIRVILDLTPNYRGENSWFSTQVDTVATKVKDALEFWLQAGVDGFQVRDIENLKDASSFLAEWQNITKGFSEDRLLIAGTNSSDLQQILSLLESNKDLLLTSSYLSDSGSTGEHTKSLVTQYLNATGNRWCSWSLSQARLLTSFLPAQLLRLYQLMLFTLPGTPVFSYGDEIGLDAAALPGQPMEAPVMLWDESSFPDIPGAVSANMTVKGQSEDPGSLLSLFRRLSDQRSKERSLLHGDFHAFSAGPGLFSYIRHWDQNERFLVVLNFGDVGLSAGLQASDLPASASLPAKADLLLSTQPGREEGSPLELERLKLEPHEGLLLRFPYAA

Molecular target: human 4F2hc (SLC3A2; CD98hc) (human) (UniProt P08195)
Assay: cryo-EM structure; SEC peak fraction of the 4F2hc-LAT2::D11vs complex in GDN, ~3 mg/ml; single-particle cryo-EM, 3.2 Å; both purified

binding: binds
B1: human LAT2 (SLC7A8) (protein, UniProt Q9UHI5-1 1-535)
chain: MEEGARHRNNTEKKHPGGGESDASPEAGSGGGGVALKKEIGLVSACGIIVGNIIGSGIFVSPKGVLENAGSVGLALIVWIVTGFITVVGALCYAELGVTIPKSGGDYSYVKDIFGGLAGFLRLWIAVLVIYPTNQAVIALTFSNYVLQPLFPTCFPPESGLRLLAAICLLLLTWVNCSSVRWATRVQDIFTAGKLLALALIIIMGIVQICKGEYFWLEPKNAFENFQEPDIGLVALAFLQGSFAYGGWNFLNYVTEELVDPYKNLPRAIFISIPLVTFVYVFANVAYVTAMSPQELLASNAVAVTFGEKLLGVMAWIMPISVALSTFGGVNGSLFTSSRLFFAGAREGHLPSVLAMIHVKRCTPIPALLFTCISTLLMLVTSDMYTLINYVGFINYLFYGVTVAGQIVLRWKKPDIPRPIKINLLFPIIYLLFWAFLLVFSLWSEPVVCGIGLAIMLTGVPVYFLGVYWQHKPKCFSDFIELLTLVSQKMCVVVYPEVERGSGTEEANEDMEEQQQPMYQPTPTKDKDVAGQPQP
